PMC10679814, “Yeast lunapark regulates the formation of trans-Sey1p complexes for homotypic ER membrane fusion” (iScience, 2023)

Molecular target: Sey1p-ΔTM (S. cerevisiae)
Experiment: SEC; Superdex 200 (10/300), 20 mM HEPES-NaOH pH 7.4, 150 mM NaCl; Sey1p-ΔTM incubated at 30°C for 1 h with GMP-PNP, without or with the Lnp1p peptide; both purified

binding: binds
B1: Lnp1p peptide, a synthetic peptide with the N-terminal region (amino acids 1-52) of Lnp1p (peptide, UniProt P38878 1-52, looked up)
peptide: MFSALGKWVRGSRNDKDFVTKYTADLSQITSQIHQLDVALKKSQSILSQWQS
notes: Lnp1p (yeast lunapark), S. cerevisiae, amino acids 1-52; also called LNP1 peptide; source: synthetic peptide (custom, Anygen)

No constants are given. Whether binding was seen depends on the method and setting. Binding calls can cover weak binding; strength is not graded here.
